The supplement of paper PMC10338343
± gives the standard deviation. The entries are a selection whose mix differs from that of the whole data set. Many of these values have a large error.

How the values were obtained:
[1] = tested on: MILI (PIWIL2) piRISC loaded with piRNA #1 (26 nt); assay: pre-steady-state target cleavage rate (min^-1); higher = faster piRNA-guided slicing of the target; conditions: guide: piRNA #1 5'p-UGAGGUAGUAGGUUGUAUAGUAUCCA; auxiliary factor: 500 nM mouse GTSF1
Method in brief: (§1)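 In this Cleave-'n-Seq assay, uncleaved targets were sequenced and normalised to depth and to weakly complementary targets. They came from a transcribed, DNA-blocked target RNA library […] mixed with 1 nM active affinity-purified piRISC carrying one synthetic guide, with or without 500 nM GTSF1 partner protein, in HEPES–potassium acetate buffer at 33 °C for 0–8 or 0–960 min. After three trials were pooled and k3 was capped at 0.0001 min^-1, the pre-steady-state cleavage rate was obtained from a burst-and-steady-state fit.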

[2] = tested on: MIWI (PIWIL1) piRISC loaded with piRNA #1 (30 nt); assay: as above; conditions: guide: piRNA #1 5'p-UGAGGUAGUAGGUUGUAUAGUAUCCAGAGG; auxiliary factor: 500 nM mouse GTSF1
Method in brief: as §1

[3] = tested on: EfPiwi piRISC loaded with piRNA #1 (26 nt); assay: pre-steady-state target cleavage rate (min^-1); guide: piRNA #1 5'p-UGAGGUAGUAGGUUGUAUAGUAUCCA; MIWI and MILI are mouse PIWI proteins and EfPiwi is from a freshwater sponge; tags in brackets are library labels; higher = faster piRNA-guided slicing of the target; conditions: auxiliary factor: 500 nM Ephydatia muelleri Gtsf1
Method in brief: as §1

Row | Sequence | pre-steady-state target cleavage rate [1] | pre-steady-state target cleavage rate [2] | pre-steady-state target cleavage rate [3]
1 | GGAGACCUAUGAAUACAUCCAACUACCUCA | 0.00224 ± 0.0032 | 0.000197 ± 0.013 | 0.00024 ± 0.013
2 | GGAGACGAUACUAUACAACCUUGAUGGAGA [g10:g24:cont:t1A] | 0.000438 ± 0.017 | 0.000709 ± 0.012 | 0.00126 ± 0.0033
3 | GGAGACCUAACUAUACAACCCUACUACCUCA | 0.000811 ± 0.014 | 0.000158 ± 0.031 | 0.00347 ± 0.0043
4 | GGAGACCUAUGAUUACAGCCUACUACCUCA | 0.000823 ± 0.0084 | 0.000751 ± 0.0069 | 0.00123 ± 0.0055
5 | GGAGACCUAUGAUAUGUUGCUACAUACCUCA | 0.000321 ± 0.016 | 0.000852 ± 0.0065 | 0.000103 ± 0.026
6 | GGAGACCUAUGAUUACAGACCUACUACCUCA | 0.000218 ± 0.016 | 0.000527 ± 0.0076 | 0.00137 ± 0.0063
7 | GGAGACCUAUGAUAACAUGGUACUACCUCA | 0.000213 ± 0.02 | 0.000493 ± 0.0074 | 0.00124 ± 0.006
8 | GGAGACCUAUGAUUACAACCUAGUUCCUCA | 0.00109 ± 0.0057 | 0.00077 ± 0.0045 | 0.00101 ± 0.0072
9 | GGAGACCUAUGAUAACAUCCUACUACCUCA | 0.00447 ± 0.0023 | 0.000717 ± 0.0066 | 0.000695 ± 0.0054
10 | GGAGACCUAUCUAUACAUGGUACUACCUCA | 0.00194 ± 0.0048 | 0.00274 ± 0.0041 | 0.00196 ± 0.0053
11 | GGAGACCUAUGAUAUGUUGCUACUACGUCA | 0.000735 ± 0.0084 | 0.00121 ± 0.0051 | 0.00102 ± 0.0042
12 | GGAGACCUAACUAUACAACCUACUAGGUCA | 0.000242 ± 0.051 | 0.00115 ± 0.01 | 0.00196 ± 0.0036
13 | GGAGACCUAACUAUACAAUCCUACUACCUCA | 0.000635 ± 0.015 | 0.000201 ± 0.02 | 0.00138 ± 0.0055
14 | GGAGACCUAUGUAUACAACCUACUCACCUCA | 0.0823 ± 0.015 | 0.144 ± 0.027 | 0.000324 ± 0.019
15 | GGAGACCUUACUAUACAACCUUGAUGGAGA [g10:g22:cont:t1A] | 0.00047 ± 0.0072 | 0.000682 ± 0.008 | 0.000744 ± 0.0077
16 | GGAGACCUAUGAUAACAACCUUCAACCUCA | 0.00083 ± 0.0051 | 0.000155 ± 0.015 | 0.00022 ± 0.017
17 | GGAGACCUAUGAUUAGAAGCUACUACCUCA | 0.00227 ± 0.003 | 0.00015 ± 0.014 | 0.000621 ± 0.0047
18 | GGAGACCUAUGAUAUGUACCAAGUACCUCA | 0.000234 ± 0.023 | 0.00037 ± 0.012 | 0.000144 ± 0.014
19 | GGAGACCUAUCUAUACAACCUACUAGGUCA | 0.000722 ± 0.01 | 0.00326 ± 0.0037 | 0.00219 ± 0.0025
20 | GGAGACCUAUGAUUACAACCUACUACAUCA | 0.00185 ± 0.0035 | 0.00359 ± 0.0039 | 0.00156 ± 0.0056
21 | GGAGACCUAUGUAUACAACACUACUACCUCA | 0.000625 ± 0.0085 | 0.000129 ± 0.022 | 0.00125 ± 0.0069
22 | GGAGACCUAUGAUAACAUCCUACUACCUGA | 0.00151 ± 0.0046 | 0.000228 ± 0.011 | 0.000973 ± 0.0072
23 | GGAGACCUAUGAAUACAACCAACUAGCUCA | 0.00223 ± 0.003 | 0.000781 ± 0.0073 | 0.00021 ± 0.019
24 | GGAGACCUAUGAUAACAACCAACUACGUCA | 0.00104 ± 0.0051 | 0.000226 ± 0.008 | 0.00106 ± 0.0053
25 | GGAGACCUAUGUAUACAACCAACUACGUCA | 0.00241 ± 0.0024 | 0.00183 ± 0.0028 | 0.000947 ± 0.0086

Records 16–18 of the list above:
Row | Sequence | pre-steady-state target cleavage rate [1] | pre-steady-state target cleavage rate [2] | pre-steady-state target cleavage rate [3]
16 | GGAGACCUAUGAUAACAACCUUCAACCUCA | 0.00083 ± 0.0051 | 0.000155 ± 0.015 | 0.00022 ± 0.017
17 | GGAGACCUAUGAUUAGAAGCUACUACCUCA | 0.00227 ± 0.003 | 0.00015 ± 0.014 | 0.000621 ± 0.0047
18 | GGAGACCUAUGAUAUGUACCAAGUACCUCA | 0.000234 ± 0.023 | 0.00037 ± 0.012 | 0.000144 ± 0.014

Later entries:

Row | Sequence | pre-steady-state target cleavage rate [1] | pre-steady-state target cleavage rate [2] | pre-steady-state target cleavage rate [3]
26 | GGAGACCUAUGAUAACAACCUACUUCGUCA | 0.001 ± 0.0089 | 0.000229 ± 0.017 | 0.000144 ± 0.014
27 | GGAGACCUAUGAUAUGAAGCAACUACCUCA | 0.000484 ± 0.018 | 0.000492 ± 0.015 | 0.000783 ± 0.0073
28 | GGAGACCUAUGAUAACAAGCUUCUACCUCA | 0.00228 ± 0.0028 | 0.000257 ± 0.0072 | 0.000272 ± 0.0095
29 | GGAGACCUAUGUAUACUACCUACUAGCUCA | 0.0108 ± 0.0031 | 0.000606 ± 0.0063 | 0.00143 ± 0.0062
30 | GGAGACCUAUGAAUACAACCAACAACCUCA | 0.00158 ± 0.0052 | 0.000564 ± 0.0056 | 0.000209 ± 0.026
31 | GGAGACCUAUGAUUAGAACCUACUACCUCA | 0.00226 ± 0.003 | 0.000111 ± 0.029 | 0.000999 ± 0.0048
32 | GGAGACCUAACUAUACACCUACUACCUCA | 0.00421 ± 0.0053 | 0.000811 ± 0.013 | 0.00586 ± 0.0042
33 | GGAGACCUAUGUAUACAACCUAGUACCUGA | 0.000481 ± 0.0094 | 0.000732 ± 0.0057 | 0.000905 ± 0.0049
34 | GGAGACCUAUGAUAUGUUGCUACUACCUGA | 0.000315 ± 0.012 | 0.000344 ± 0.0087 | 0.000453 ± 0.0058
35 | GGAGACCUAUGAUAUCAACCUACGACCUCA | 0.00225 ± 0.0041 | 0.000217 ± 0.013 | 0.000498 ± 0.011
36 | GGAGACCUAUGAUAUGUUGCUGCUACCUCA | 0.000114 ± 0.022 | 0.000183 ± 0.011 | 0.000171 ± 0.015
37 | GGAGACCUAUGAUAUCAACCUACUUCGUCA | 0.000123 ± 0.023 | 0.000137 ± 0.015 | 0.000108 ± 0.019
38 | GGAGACCUAUGAUAUCAACCUACUACCUUA | 0.00133 ± 0.0052 | 0.000229 ± 0.012 | 0.000693 ± 0.008
39 | GGAGACCUAUGAUAUGUUGCUACAAGCUCA | 0.000552 ± 0.014 | 0.00106 ± 0.0074 | 0.000246 ± 0.0095
40 | GGAGACCUAUGAUAUGUUGCUACUACCUCA [g2:g11:cont:t1A] | 0.000384 ± 0.0091 | 0.000868 ± 0.0054 | 0.000904 ± 0.0022
41 | GGAGACCUAUGUAUACAACGUACUACCACA | 0.00942 ± 0.003 | 0.00149 ± 0.0042 | 0.00135 ± 0.0095
42 | GGAGACCUAUGAUUACAACCUAGCUACCUCA | 0.00386 ± 0.0032 | 0.00153 ± 0.004 | 0.00117 ± 0.0072
43 | GGAGACCUAUGUAUACAACGUACUUCCUCA | 0.0105 ± 0.0026 | 0.00201 ± 0.004 | 0.00325 ± 0.0044
44 | GGAGACCUAUGAUAACAACCUAGAACCUCA | 0.00115 ± 0.0075 | 0.000241 ± 0.015 | 0.000162 ± 0.02
45 | GGAGACCUAUGAAUACAACCAACUACGUCA | 0.00249 ± 0.0033 | 0.000288 ± 0.0092 | 0.000834 ± 0.0089
46 | GGAGACCUAUGUAUACAACCUACUAGCUGA | 0.000947 ± 0.0058 | 0.00102 ± 0.0037 | 0.000585 ± 0.013
47 | GGAGACCUAUGAUAUGUAGCCUACUACCUCA | 0.00244 ± 0.0035 | 0.000126 ± 0.036 | 0.000258 ± 0.012
48 | GGAGAGGAUACUAUACAACGAUGAUGGAGA [g12:g25:cont:t1A] | 0.000125 ± 0.012 | 0.000191 ± 0.019 | 0.00183 ± 0.0056
49 | GGAGACCUAUGAUAACAACCAACUACCUGA | 0.00128 ± 0.0041 | 0.000304 ± 0.0048 | 0.000335 ± 0.01
50 | GGAGACCUAUGAUAUCAUCCUAGUACCUCA | 0.000549 ± 0.0098 | 0.000116 ± 0.017 | 0.000183 ± 0.014
